# Cleaved PARP after 72 h of treatment

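The test systems are human melanoma cell lines, treated with a pair of drugs for 72 h and then stained and imaged. The read-out is the fraction of cleaved-PARP-positive nuclei, in % of that fraction in the DMSO control; 200 means twice the control level of this apoptosis marker. Every drug was used at one fixed concentration, the higher of two screened. These are primary screening values without error estimates. The marker varies much from line to line, for technical or biological reasons.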
An unselected part of the screen is shown.

Drugs:
YM155 (0.002 µM): COCC[n+]1c2c(n(Cc3cnccn3)c1C)C(=O)c1ccccc1C2=O
ruxolitinib (5 µM): N#CC[C@H](C1CCCC1)n1cc(-c2ncnc3[nH]ccc23)cn1
AZD7762 (0.1 µM): NC(=O)Nc1cc(-c2cccc(F)c2)sc1C(=O)N[C@H]1CCCNC1
perifosine (2 µM): CCCCCCCCCCCCCCCCCCOP(=O)([O-])OC1CC[N+](C)(C)CC1
temozolomide (10 µM): Cn1nnc2c(C(N)=O)ncn2c1=O
L-779450 (1 µM): Oc1cc(-c2nc(-c3ccccc3)[nH]c2-c2ccncc2)ccc1Cl
MK-2206 (2 µM): NC1(c2ccc(-c3nc4ccn5c(=O)[nH]nc5c4cc3-c3ccccc3)cc2)CCC1
SU6656 (2 µM): CN(C)S(=O)(=O)c1ccc2c(c1)/C(=C/c1cc3c([nH]1)CCCC3)C(=O)N2
tamatinib (2 µM): COc1cc(Nc2ncc(F)c(Nc3ccc4c(n3)NC(=O)C(C)(C)O4)n2)cc(OC)c1OC
darinaparsin (2 µM): C[As](C)SC[C@H](NC(=O)CC[C@H](N)C(=O)O)C(=O)NCC(=O)O
palbociclib (0.2 µM): CC(=O)c1c(C)c2cnc(Nc3ccc(N4CCNCC4)cn3)nc2n(C2CCCC2)c1=O
pazopanib (2 µM): Cc1ccc(Nc2nccc(N(C)c3ccc4c(C)n(C)nc4c3)n2)cc1S(N)(=O)=O
fludarabine (1 µM): Nc1nc(F)nc2c1ncn2[C@@H]1O[C@H](CO)[C@@H](O)[C@@H]1O
LFM-A13 (10 µM): C/C(O)=C(\C#N)C(=O)Nc1cc(Br)ccc1Br

| Pair | A101D | IPC-298 | COLO 800 |
|---|---|---|---|
| palbociclib + ruxolitinib | 216 | 87.7 | 123 |
| perifosine + tamatinib | 549 | 865 | 230 |
| AZD7762 + fludarabine | 205 | 324 | 183 |
| L-779450 + MK-2206 | 828 | 76.8 | 38.1 |
| YM155 + ruxolitinib | 182 | 150 | 186 |
| AZD7762 + perifosine | 69.0 | 99.1 | 176 |
| palbociclib + LFM-A13 | 246 | 90.9 | 153 |
| YM155 + temozolomide | 148 | 372 | 259 |
| MK-2206 + pazopanib | 75.9 | 92.0 | 93.2 |
| LFM-A13 + SU6656 | 280 | 39.5 | 257 |
| MK-2206 + fludarabine | 92.2 | 97.4 | 48.2 |
| pazopanib + SU6656 | 73.7 | 1030 | 183 |
| SU6656 + AZD7762 | 774 | 159 | 141 |
| AZD7762 + temozolomide | 136 | 82.6 | 234 |
| tamatinib + AZD7762 | 403 | 44.4 | 144 |
| SU6656 + palbociclib | 138 | 105 | 134 |
| MK-2206 + tamatinib | 418 | 39.5 | 413 |
| ruxolitinib + tamatinib | 986 | 182 | 185 |
| fludarabine + LFM-A13 | 60.5 | 107 | 214 |
| tamatinib + L-779450 | 212 | 72.1 | 173 |
| darinaparsin + MK-2206 | 41.3 | 21.4 | 160 |
| LFM-A13 + temozolomide | 184 | 49.8 | 92.5 |
| tamatinib + darinaparsin | 267 | 38.6 | 144 |
| L-779450 + palbociclib | 771 | 135 | 127 |
| L-779450 + pazopanib | 271 | 350 | 174 |
| perifosine + darinaparsin | 35.5 | 49.9 | 95.0 |
| pazopanib + ruxolitinib | 72.2 | 152 | 74.7 |
| darinaparsin + LFM-A13 | 58.7 | 50.6 | 130 |
| fludarabine + ruxolitinib | 103 | 109 | 47.0 |
| perifosine + MK-2206 | 83.9 | 144 | 188 |
| L-779450 + temozolomide | 198 | 44.3 | 150 |
| temozolomide + darinaparsin | 176 | 83.6 | 40.5 |
| palbociclib + fludarabine | 165 | 246 | 249 |
| tamatinib + LFM-A13 | 247 | 81.3 | 278 |
| YM155 + darinaparsin | 304 | 83.1 | 140 |

Values as published with doi:10.1371/journal.pone.0140310, rounded.